Laboratory results reported in the supplement of paper PMC10060354, “Discovery of a small molecule ligand of FRS2 that inhibits invasion and tumor growth” (Cellular Oncology, 2022).

By UniProt entry, the sequences of proteins in these tests, tags left out. Where a name states a change or a piece, a line headed by the entry shows the natural chain unless it says otherwise.
UniProt Q96M27: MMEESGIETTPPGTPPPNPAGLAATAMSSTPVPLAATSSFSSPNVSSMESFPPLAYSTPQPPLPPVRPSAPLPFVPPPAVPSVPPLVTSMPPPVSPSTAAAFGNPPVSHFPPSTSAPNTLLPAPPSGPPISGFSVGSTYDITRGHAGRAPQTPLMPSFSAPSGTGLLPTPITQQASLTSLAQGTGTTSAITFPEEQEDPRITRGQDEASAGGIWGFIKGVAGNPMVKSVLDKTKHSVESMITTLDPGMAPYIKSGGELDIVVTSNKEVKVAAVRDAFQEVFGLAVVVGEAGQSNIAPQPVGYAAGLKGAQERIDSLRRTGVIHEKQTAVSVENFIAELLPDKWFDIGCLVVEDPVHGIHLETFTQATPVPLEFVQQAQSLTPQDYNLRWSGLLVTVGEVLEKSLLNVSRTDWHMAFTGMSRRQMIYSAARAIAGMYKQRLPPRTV
UniProt O43665: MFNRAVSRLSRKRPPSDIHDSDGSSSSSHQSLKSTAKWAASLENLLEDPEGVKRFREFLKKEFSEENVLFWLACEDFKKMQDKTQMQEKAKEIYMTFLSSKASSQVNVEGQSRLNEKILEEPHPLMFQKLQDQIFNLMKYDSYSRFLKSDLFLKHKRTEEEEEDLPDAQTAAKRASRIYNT
UniProt Q8N511: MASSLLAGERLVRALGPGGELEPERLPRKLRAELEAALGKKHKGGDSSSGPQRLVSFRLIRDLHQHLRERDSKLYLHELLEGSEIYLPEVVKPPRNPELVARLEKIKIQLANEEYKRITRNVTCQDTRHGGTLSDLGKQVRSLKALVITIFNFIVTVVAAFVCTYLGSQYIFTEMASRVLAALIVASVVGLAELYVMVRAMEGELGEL
UniProt Q9Y5Q8: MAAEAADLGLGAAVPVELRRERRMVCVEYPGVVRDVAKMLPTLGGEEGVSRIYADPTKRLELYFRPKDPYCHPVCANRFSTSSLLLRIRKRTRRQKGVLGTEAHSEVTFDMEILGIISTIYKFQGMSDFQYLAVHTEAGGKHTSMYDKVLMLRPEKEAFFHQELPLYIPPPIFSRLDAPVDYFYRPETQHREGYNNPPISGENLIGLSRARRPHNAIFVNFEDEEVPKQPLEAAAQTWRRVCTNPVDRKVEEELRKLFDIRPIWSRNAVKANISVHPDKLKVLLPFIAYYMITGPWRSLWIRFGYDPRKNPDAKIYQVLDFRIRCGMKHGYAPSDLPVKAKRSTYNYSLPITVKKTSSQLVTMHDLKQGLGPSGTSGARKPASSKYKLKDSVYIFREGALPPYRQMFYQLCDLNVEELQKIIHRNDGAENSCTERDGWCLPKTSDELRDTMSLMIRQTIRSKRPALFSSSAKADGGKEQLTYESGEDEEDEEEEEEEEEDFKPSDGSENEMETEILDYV
UniProt Q9NSG2: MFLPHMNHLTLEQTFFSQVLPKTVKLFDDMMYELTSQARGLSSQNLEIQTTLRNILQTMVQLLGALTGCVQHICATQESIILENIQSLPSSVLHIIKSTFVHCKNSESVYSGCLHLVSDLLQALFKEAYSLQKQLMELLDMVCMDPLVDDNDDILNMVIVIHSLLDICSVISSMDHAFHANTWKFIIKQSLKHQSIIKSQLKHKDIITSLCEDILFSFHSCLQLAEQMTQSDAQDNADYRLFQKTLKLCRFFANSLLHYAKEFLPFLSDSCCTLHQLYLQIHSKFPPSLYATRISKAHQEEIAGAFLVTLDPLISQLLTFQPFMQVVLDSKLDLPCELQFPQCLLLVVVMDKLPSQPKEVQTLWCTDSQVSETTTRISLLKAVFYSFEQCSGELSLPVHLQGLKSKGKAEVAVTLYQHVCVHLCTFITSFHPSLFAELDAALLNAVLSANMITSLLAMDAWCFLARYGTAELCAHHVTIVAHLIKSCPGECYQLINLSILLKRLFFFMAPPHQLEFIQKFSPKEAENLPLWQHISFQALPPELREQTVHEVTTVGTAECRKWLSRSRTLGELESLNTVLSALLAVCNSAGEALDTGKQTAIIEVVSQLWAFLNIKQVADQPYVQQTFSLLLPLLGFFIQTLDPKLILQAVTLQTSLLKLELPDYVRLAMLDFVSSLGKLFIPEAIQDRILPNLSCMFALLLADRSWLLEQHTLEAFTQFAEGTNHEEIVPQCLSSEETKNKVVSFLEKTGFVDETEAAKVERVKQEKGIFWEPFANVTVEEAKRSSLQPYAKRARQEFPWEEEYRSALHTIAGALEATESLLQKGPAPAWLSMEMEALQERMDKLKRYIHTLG
UniProt Q6IN85: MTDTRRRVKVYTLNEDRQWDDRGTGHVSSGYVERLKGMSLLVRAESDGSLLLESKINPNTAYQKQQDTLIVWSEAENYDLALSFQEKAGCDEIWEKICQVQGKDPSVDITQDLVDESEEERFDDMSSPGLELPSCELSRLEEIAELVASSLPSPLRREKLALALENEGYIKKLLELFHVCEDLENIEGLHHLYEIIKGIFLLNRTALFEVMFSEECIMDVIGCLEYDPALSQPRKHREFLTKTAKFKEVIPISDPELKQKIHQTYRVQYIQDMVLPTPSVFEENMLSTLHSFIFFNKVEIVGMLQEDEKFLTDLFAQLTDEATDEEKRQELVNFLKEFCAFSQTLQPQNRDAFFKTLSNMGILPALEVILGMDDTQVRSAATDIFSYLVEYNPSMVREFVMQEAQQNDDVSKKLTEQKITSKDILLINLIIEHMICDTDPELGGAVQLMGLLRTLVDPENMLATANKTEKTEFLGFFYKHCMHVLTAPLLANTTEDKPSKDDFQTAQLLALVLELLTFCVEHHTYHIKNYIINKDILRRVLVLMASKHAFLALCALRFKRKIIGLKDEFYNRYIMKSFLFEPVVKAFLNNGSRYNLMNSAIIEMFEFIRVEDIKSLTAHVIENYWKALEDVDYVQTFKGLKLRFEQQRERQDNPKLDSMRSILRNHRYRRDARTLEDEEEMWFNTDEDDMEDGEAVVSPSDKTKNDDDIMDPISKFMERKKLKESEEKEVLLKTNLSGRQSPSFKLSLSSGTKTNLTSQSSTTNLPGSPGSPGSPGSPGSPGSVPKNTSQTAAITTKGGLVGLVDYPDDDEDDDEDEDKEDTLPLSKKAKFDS
UniProt Q9NQP4, whole entry: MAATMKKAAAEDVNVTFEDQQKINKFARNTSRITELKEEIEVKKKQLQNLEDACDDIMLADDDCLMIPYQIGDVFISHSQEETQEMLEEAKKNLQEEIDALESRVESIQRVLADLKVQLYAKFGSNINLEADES
UniProt P27694, whole entry: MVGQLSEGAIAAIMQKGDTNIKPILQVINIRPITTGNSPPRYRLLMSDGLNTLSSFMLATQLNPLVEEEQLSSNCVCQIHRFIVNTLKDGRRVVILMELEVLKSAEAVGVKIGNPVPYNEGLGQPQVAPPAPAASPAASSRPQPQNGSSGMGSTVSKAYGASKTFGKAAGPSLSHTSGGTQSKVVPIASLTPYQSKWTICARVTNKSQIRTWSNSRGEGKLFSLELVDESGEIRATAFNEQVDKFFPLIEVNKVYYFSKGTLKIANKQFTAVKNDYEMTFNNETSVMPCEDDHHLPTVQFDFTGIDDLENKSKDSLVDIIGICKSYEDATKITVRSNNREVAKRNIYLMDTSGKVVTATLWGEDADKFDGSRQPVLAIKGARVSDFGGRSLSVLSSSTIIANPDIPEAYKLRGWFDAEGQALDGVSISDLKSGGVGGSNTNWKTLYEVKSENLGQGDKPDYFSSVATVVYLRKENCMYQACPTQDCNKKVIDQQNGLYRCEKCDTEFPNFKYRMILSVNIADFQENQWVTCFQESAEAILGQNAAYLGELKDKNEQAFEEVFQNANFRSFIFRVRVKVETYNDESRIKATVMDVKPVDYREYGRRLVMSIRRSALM
UniProt Q9NQT4, whole entry: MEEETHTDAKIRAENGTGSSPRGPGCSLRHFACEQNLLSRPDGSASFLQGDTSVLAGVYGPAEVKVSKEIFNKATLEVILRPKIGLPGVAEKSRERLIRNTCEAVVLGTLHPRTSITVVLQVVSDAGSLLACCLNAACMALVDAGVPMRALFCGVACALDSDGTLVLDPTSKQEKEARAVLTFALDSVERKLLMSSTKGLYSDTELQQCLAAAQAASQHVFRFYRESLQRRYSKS
UniProt Q9H7D0, whole entry: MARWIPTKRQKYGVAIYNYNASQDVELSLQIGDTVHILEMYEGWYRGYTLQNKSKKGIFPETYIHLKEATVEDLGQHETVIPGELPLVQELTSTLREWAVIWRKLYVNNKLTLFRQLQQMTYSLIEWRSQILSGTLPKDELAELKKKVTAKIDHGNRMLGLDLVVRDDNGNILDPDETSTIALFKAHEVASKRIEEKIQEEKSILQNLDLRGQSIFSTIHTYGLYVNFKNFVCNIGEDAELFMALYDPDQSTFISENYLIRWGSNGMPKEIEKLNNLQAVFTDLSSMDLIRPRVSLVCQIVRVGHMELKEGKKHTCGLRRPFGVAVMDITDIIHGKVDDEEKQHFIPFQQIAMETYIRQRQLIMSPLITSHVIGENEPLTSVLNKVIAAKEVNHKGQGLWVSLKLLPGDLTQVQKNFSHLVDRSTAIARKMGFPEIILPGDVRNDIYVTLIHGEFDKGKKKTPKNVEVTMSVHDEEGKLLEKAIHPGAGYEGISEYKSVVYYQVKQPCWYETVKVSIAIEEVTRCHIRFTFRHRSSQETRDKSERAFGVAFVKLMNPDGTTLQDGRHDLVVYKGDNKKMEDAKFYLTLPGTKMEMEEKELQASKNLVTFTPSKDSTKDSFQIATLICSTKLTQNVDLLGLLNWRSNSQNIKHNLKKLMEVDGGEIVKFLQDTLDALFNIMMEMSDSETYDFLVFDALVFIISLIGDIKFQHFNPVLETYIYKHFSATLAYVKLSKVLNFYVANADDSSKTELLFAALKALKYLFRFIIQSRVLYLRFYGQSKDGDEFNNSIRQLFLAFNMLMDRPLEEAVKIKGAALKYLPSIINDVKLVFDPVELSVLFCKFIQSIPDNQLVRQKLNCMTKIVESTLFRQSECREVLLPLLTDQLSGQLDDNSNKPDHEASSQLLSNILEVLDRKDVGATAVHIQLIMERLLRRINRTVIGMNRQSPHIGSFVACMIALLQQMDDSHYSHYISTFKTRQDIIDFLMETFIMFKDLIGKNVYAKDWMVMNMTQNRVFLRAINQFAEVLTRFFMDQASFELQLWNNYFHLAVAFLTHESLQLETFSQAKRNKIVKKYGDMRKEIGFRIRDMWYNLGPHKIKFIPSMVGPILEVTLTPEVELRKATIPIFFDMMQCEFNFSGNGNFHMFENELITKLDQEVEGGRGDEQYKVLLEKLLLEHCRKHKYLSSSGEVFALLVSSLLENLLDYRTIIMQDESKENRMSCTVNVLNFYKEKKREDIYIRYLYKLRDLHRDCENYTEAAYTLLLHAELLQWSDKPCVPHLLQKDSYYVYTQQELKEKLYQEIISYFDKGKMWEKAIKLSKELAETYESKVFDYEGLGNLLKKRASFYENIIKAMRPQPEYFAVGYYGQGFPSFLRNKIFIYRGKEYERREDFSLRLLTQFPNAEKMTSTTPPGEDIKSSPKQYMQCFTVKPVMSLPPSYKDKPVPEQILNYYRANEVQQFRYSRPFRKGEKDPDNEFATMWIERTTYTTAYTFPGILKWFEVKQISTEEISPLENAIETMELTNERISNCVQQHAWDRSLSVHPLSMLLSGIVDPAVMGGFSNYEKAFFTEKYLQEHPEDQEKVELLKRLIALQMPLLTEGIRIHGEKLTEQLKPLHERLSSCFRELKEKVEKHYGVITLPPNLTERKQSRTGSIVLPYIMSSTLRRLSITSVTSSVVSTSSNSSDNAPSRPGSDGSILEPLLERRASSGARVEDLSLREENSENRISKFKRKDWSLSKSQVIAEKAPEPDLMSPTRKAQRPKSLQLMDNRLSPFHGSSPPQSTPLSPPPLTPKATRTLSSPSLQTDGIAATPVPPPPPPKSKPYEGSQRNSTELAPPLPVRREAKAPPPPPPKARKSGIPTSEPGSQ
UniProt O43257, whole entry: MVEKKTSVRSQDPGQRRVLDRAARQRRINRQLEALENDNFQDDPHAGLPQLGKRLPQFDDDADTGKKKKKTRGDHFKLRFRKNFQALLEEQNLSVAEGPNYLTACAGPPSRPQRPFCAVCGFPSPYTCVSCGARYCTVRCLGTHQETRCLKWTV
UniProt P82909: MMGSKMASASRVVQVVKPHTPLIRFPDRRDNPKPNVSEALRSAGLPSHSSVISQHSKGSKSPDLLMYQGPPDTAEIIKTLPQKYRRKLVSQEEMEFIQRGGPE
UniProt Q96H35: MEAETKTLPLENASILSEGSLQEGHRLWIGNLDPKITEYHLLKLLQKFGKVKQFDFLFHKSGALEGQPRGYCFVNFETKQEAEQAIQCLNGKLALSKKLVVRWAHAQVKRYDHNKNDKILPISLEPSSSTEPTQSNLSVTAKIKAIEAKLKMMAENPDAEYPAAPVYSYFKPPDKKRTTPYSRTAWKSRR
UniProt Q8WUD1: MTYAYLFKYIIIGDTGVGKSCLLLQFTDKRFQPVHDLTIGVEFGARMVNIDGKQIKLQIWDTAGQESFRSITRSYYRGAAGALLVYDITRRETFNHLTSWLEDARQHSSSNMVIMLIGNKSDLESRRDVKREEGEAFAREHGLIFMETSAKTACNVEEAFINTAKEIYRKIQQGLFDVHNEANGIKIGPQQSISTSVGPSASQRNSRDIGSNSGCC

Compound: [O-][N+](C(C1=C(C(O)=C2)NC(C(C=C3)=CC=C3Cl)C4C1C=CC4)=C2Cl)=O
Test: melting temperature shift (compound 7 minus DMSO); higher = compound stabilises the protein
Settings: 10 µM
Procedure: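 Thermal proteome profiling (TMT mass spectrometry) in intact DAOY medulloblastoma cells or DAOY lysates treated with 10 µM compound 7 or DMSO, heated at 10 temperatures from 40.5 to 73.8 °C for 3 min. Melting curves were fitted with the Bioconductor TPP package, and the melting point difference between compound and vehicle is reported per protein (single curve per condition).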

[1] = system: DAOY cell lysate, treatment time: 20 min, 4 °C
[2] = system: intact DAOY cells, treatment time: 90 min, 37 °C

## UniProt O94804
[1]
  melting temperature shift: -0.121 °C
[2]
  melting temperature shift: -0.709 °C

## ARL14EP (UniProt Q8N8R7)
[1]
  melting temperature shift: -0.569 °C

## TRAPPC9 (UniProt Q96Q05)
[1]
  melting temperature shift: 0.0171 °C
[2]
  melting temperature shift: 0.54 °C

## PRRC1 (UniProt Q96M27)
[1]
  melting temperature shift: -3.01 °C
[2]
  melting temperature shift: 3.86 °C

## UniProt Q8WXX7
[1]
  melting temperature shift: 1.24 °C

## UniProt Q7L2Z9
[1]
  melting temperature shift: -0.72 °C

## DDX42 (UniProt Q86XP3)
[1]
  melting temperature shift: -0.0659 °C
[2]
  melting temperature shift: -0.24 °C

## RGS10 (UniProt O43665)
[1]
  melting temperature shift: 0.388 °C
[2]
  melting temperature shift: 0.376 °C

## UniProt P06744
[1]
  melting temperature shift: -0.39 °C
[2]
  melting temperature shift: 0.205 °C

## TMEM199 (UniProt Q8N511)
[2]
  melting temperature shift: -1.18 °C

## UniProt Q01469
[1]
  melting temperature shift: 0.129 °C
[2]
  melting temperature shift: 0.149 °C

## ITGA2 (UniProt P17301)
[1]
  melting temperature shift: 1.4 °C
[2]
  melting temperature shift: -0.728 °C

## EPRS (UniProt P07814)
[1]
  melting temperature shift: -1 °C
[2]
  melting temperature shift: -0.497 °C

## GTF3C5 (UniProt Q9Y5Q8)
[1]
  melting temperature shift: 0.743 °C
[2]
  melting temperature shift: 1.72 °C

## UniProt Q9UJQ1
[2]
  melting temperature shift: 0.322 °C

## SLC4A1AP (UniProt Q9BWU0)
[1]
  melting temperature shift: -0.461 °C
[2]
  melting temperature shift: -0.529 °C

## POLD1 (UniProt P28340)
[1]
  melting temperature shift: -0.0745 °C
[2]
  melting temperature shift: -1.63 °C

## CASP4 (UniProt P49662)
[1]
  melting temperature shift: -0.0413 °C
[2]
  melting temperature shift: 0.274 °C

## SNX8 (UniProt Q9Y5X2)
[1]
  melting temperature shift: -0.789 °C
[2]
  melting temperature shift: -1.68 °C

## UniProt Q9NUS5
[2]
  melting temperature shift: -0.942 °C

## UniProt P51668
[2]
  melting temperature shift: -0.256 °C

## UniProt Q9NSG2
[1]
  melting temperature shift: -2.38 °C

## UniProt O75487
[1]
  melting temperature shift: 0.0909 °C

## UniProt Q6WRI0
[2]
  melting temperature shift: -0.847 °C

## PRPF3 (UniProt O43395)
[1]
  melting temperature shift: 0.822 °C
[2]
  melting temperature shift: -0.923 °C

## PPP4R3A (UniProt Q6IN85)
[1]
  melting temperature shift: -0.516 °C
[2]
  melting temperature shift: 0.186 °C

## UXS1 (UniProt Q8NBZ7)
[1]
  melting temperature shift: -0.144 °C
[2]
  melting temperature shift: -0.444 °C

## NFKB2 (UniProt Q00653)
[1]
  melting temperature shift: 0.32 °C
[2]
  melting temperature shift: 0.498 °C

## SLC25A22 (UniProt Q9H936)
[1]
  melting temperature shift: 2.25 °C
[2]
  melting temperature shift: -2.04 °C

## USE1 (UniProt Q9NZ43)
[1]
  melting temperature shift: 1.91 °C
[2]
  melting temperature shift: -0.00681 °C

## CDC25C (UniProt P30307)
[1]
  melting temperature shift: 1.34 °C
[2]
  melting temperature shift: -0.117 °C

## PIGA (UniProt P37287)
[1]
  melting temperature shift: 0.485 °C
[2]
  melting temperature shift: -0.361 °C

## PFDN4 (UniProt Q9NQP4)
[2]
  melting temperature shift: -0.683 °C

## SUGP1 (UniProt Q8IWZ8)
[1]
  melting temperature shift: 0.443 °C
[2]
  melting temperature shift: -1.18 °C

## STIP1 (UniProt P31948)
[1]
  melting temperature shift: -2.13 °C
[2]
  melting temperature shift: 0.323 °C

## CSRP2 (UniProt Q16527)
[1]
  melting temperature shift: 0.389 °C

## GPHN (UniProt Q9NQX3)
[1]
  melting temperature shift: -0.806 °C
[2]
  melting temperature shift: 0.39 °C

## UniProt O60711
[1]
  melting temperature shift: -0.721 °C
[2]
  melting temperature shift: 1.76 °C

## LYRM7 (UniProt Q5U5X0)
[1]
  melting temperature shift: 0.34 °C
[2]
  melting temperature shift: -0.318 °C

## EZR (UniProt P15311)
[1]
  melting temperature shift: -0.0147 °C
[2]
  melting temperature shift: 0.437 °C

## DBNL (UniProt Q9UJU6)
[1]
  melting temperature shift: -1.18 °C
[2]
  melting temperature shift: -0.325 °C

## PPP4C (UniProt P60510)
[1]
  melting temperature shift: -1.46 °C
[2]
  melting temperature shift: 0.689 °C

## ACBD6 (UniProt Q9BR61)
[1]
  melting temperature shift: 0.158 °C
[2]
  melting temperature shift: 0.608 °C

## PPIL1 (UniProt Q9Y3C6)
[1]
  melting temperature shift: -0.414 °C
[2]
  melting temperature shift: 0.367 °C

## UniProt P43360
[1]
  melting temperature shift: -1.89 °C
[2]
  melting temperature shift: 0.358 °C

## RPA1 (UniProt P27694)
[1]
  melting temperature shift: -0.568 °C
[2]
  melting temperature shift: -0.691 °C

## EXOSC5 (UniProt Q9NQT4)
[1]
  melting temperature shift: -0.53 °C

## YARS (UniProt P54577)
[1]
  melting temperature shift: -0.795 °C
[2]
  melting temperature shift: -0.106 °C

## HAT1 (UniProt O14929)
[1]
  melting temperature shift: -0.452 °C
[2]
  melting temperature shift: -0.0732 °C

## UniProt Q9BXT2
[2]
  melting temperature shift: 0.707 °C

## UniProt Q8IUQ4
[1]
  melting temperature shift: -3.7 °C

## UniProt Q9H7N4
[1]
  melting temperature shift: 0.544 °C
[2]
  melting temperature shift: 2.66 °C

## IFRD1 (UniProt O00458)
[1]
  melting temperature shift: -0.413 °C
[2]
  melting temperature shift: -1.14 °C

## SAMD9 (UniProt Q5K651)
[1]
  melting temperature shift: -0.301 °C

## DOCK5 (UniProt Q9H7D0)
[1]
  melting temperature shift: 0.108 °C
[2]
  melting temperature shift: -0.985 °C

## EIF2B3 (UniProt Q9NR50)
[1]
  melting temperature shift: -0.18 °C
[2]
  melting temperature shift: -1.25 °C

## H2AFX (UniProt P16104)
[2]
  melting temperature shift: -0.0251 °C

## UniProt O43257
[2]
  melting temperature shift: -0.603 °C

## RALGAPA1 (UniProt Q6GYQ0)
[1]
  melting temperature shift: -0.964 °C
[2]
  melting temperature shift: -0.822 °C

## SIRT6 (UniProt Q8N6T7)
[1]
  melting temperature shift: -0.525 °C
[2]
  melting temperature shift: 0.601 °C

## UniProt Q9UJ55
[2]
  melting temperature shift: 0.471 °C

## UniProt Q86TV6
[1]
  melting temperature shift: 0.0663 °C

## SLC25A12 (UniProt O75746)
[1]
  melting temperature shift: 0.284 °C
[2]
  melting temperature shift: 0.0574 °C

## UniProt P08123
[1]
  melting temperature shift: 0.438 °C
[2]
  melting temperature shift: 0.0393 °C

## BMP2K (UniProt Q9NSY1)
[1]
  melting temperature shift: 3.7 °C

## NUDT3 (UniProt O95989)
[1]
  melting temperature shift: -1.65 °C
[2]
  melting temperature shift: -0.438 °C

## FNBP1 (UniProt Q96RU3)
[1]
  melting temperature shift: 1.86 °C

## BCL9L (UniProt Q86UU0)
[1]
  melting temperature shift: -1.53 °C

## SNRPD2 (UniProt P62316)
[1]
  melting temperature shift: -1.4 °C
[2]
  melting temperature shift: -0.192 °C

## CHORDC1 (UniProt Q9UHD1)
[1]
  melting temperature shift: -0.242 °C
[2]
  melting temperature shift: 0.0505 °C

## ZMYM1 (UniProt Q5SVZ6)
[1]
  melting temperature shift: 0.301 °C

## UBR7 (UniProt Q8N806)
[1]
  melting temperature shift: 0.475 °C
[2]
  melting temperature shift: 0.307 °C

## MRPS36 (UniProt P82909)
[1]
  melting temperature shift: 1.96 °C

## UniProt Q96H35
[1]
  melting temperature shift: 6.82 °C

## PSMC3 (UniProt P17980)
[1]
  melting temperature shift: -0.607 °C
[2]
  melting temperature shift: -1.15 °C

## UniProt Q8WUD1
[1]
  melting temperature shift: -0.0621 °C
[2]
  melting temperature shift: 0.741 °C

## MCM7 (UniProt P33993)
[1]
  melting temperature shift: -0.954 °C
[2]
  melting temperature shift: -0.922 °C

## XRN1 (UniProt Q8IZH2)
[1]
  melting temperature shift: -2.44 °C

## UniProt O00214
[1]
  melting temperature shift: 0.791 °C
[2]
  melting temperature shift: 1.51 °C

## UniProt Q02388
[1]
  melting temperature shift: -1.58 °C
[2]
  melting temperature shift: -2.72 °C

## UniProt P01579
[2]
  melting temperature shift: -3.12 °C

## TRAP1 (UniProt Q12931)
[1]
  melting temperature shift: 0.464 °C
[2]
  melting temperature shift: -1.65 °C

## NCAPG2 (UniProt Q86XI2)
[1]
  melting temperature shift: -1.93 °C
[2]
  melting temperature shift: -1.38 °C

## ANXA1 (UniProt P04083)
[1]
  melting temperature shift: -0.0347 °C
[2]
  melting temperature shift: 0.155 °C

## RBM39 (UniProt Q14498)
[1]
  melting temperature shift: -0.193 °C
[2]
  melting temperature shift: -0.755 °C

## COX7A2L (UniProt O14548)
[1]
  melting temperature shift: 3.22 °C
[2]
  melting temperature shift: 0.639 °C

## TTLL12 (UniProt Q14166)
[1]
  melting temperature shift: -1.1 °C
[2]
  melting temperature shift: 0.202 °C

## USP34 (UniProt Q70CQ2)
[1]
  melting temperature shift: 0.121 °C
[2]
  melting temperature shift: -3.85 °C

## PPCS (UniProt Q9HAB8)
[1]
  melting temperature shift: -0.399 °C
[2]
  melting temperature shift: 0.117 °C

## NAPG (UniProt Q99747)
[1]
  melting temperature shift: 0.207 °C
[2]
  melting temperature shift: 0.494 °C

Repeats are few or missing, and single values can be far off.
